Where “and” joins values, the source holds several entries; their conditions need not be identical. Equal values may be shown once. The inconclusive results got no clear call from the source; some entries with a clear call stand among them for comparison. Calls of active or inactive are those of the source.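 Rule for the calls: active = fitted curve rises past 40% activation at or below the top valid concentration, in every replicate test; inconclusive = replicate tests give mixed outcomes; inactive = all replicate tests inactive, or signal moves in the opposite direction.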
assay: ARE-bla reporter activation in HepG2 – cell-based, beta-lactamase, dry powder, set 4, Keap1-Nrf2 interaction inhibitor project, dose response (AID 651807); details: ARE-bla HepG2, beta-lactamase FRET ratio 460/530; at 68 µM (top of the series) unless noted

| Compound | activation |
| --- | --- |
| O=C(O)[C@H]1CCCC[C@H]1C(=O)N1CCc2ccccc2[C@H]1CNS(=O)(=O)c1ccc([N+](=O)[O-])cc1 | inconclusive: 36% |
| COC(=O)[C@@H]1CCCC[C@@H]1C(=O)N1CCc2ccccc2[C@@H]1CN1C(=O)c2ccccc2C1=O | inconclusive: 44.2% |
| O=C1c2ccccc2C(=O)N1C[C@H]1NCCc2ccccc21 | inactive: 43.8% |
| C[C@H](NC(=O)C1CCCC[C@H]1C(=O)O)c1ccccc1 (mixture of isomers) | inconclusive: 26.5% |
| O=C(O)CCC(=O)N1CCc2ccccc2C1CN1C(=O)c2ccccc2C1=O (stereo not given) | inconclusive: 48.5% |
| O=C(O)[C@H]1CCCC[C@H]1C(=O)N1CCc2ccccc2C1CCN1C(=O)c2ccccc2C1=O (stereo not given in full) | inconclusive: 31.3% and inactive: 17.3% |
| COC(=O)C1CCCCC1C(=O)N1CCc2ccccc2C1CN1C(=O)c2ccccc2C1=O (stereo not given) | inconclusive: 6.2% |
| CCOC(=O)C(C(=O)OCC)c1cc(CN2C(=O)c3ccccc3C2=O)c2ccccc2n1 | inconclusive: -231% |
| COC(=O)CNc1nc(NS(=O)(=O)c2c(C)cc(C)cc2C)c2ccccc2n1 | inactive: -4.15% |
| O=C1c2ccccc2C(=O)N1C[C@@H]1c2ccccc2CCN1C(=O)C1CCCCC1 | inconclusive: 25.4% |
| COC(=O)[C@@H]1CCCC[C@@H]1C(=O)N1CCc2ccccc2[C@H]1CN1C(=O)c2ccccc2C1=O | inactive: 25.5% |
| O=C(NC[C@@H]1c2ccccc2CCN1C(=O)[C@@H]1CCCC[C@@H]1C(=O)O)c1ccccc1 | inactive: 6.57% |
| CCOC(=O)Cc1nc(NS(=O)(=O)c2c(C)cc(C)cc2C)c2ccccc2n1 | inconclusive: 65.8% |
| O=C(O)/C=C\C(=O)N1CCc2ccccc2C1CN1C(=O)c2ccccc2C1=O (stereo not given) | inconclusive: 45.9% |
| Cc1cc(C)c(S(=O)(=O)Nc2nc(NCCO)nc3ccccc23)c(C)c1 | inactive: -10.1% |
| O=C(O)CCCC(=O)N1CCc2ccccc2C1CN1C(=O)c2ccccc2C1=O (stereo not given) | inconclusive: 37.8% |
| O=C(O)C1CCCCC1C(=O)N1CCc2ccccc2C1c1ccccc1 (stereo not given) | inconclusive: 49.7% |
| C[C@@H](NC(=O)C1CCCC[C@H]1C(=O)O)c1ccccc1 (mixture of isomers) | inconclusive: 39.6% |
| O=C(NCCO)c1ccccc1C(=O)NC[C@@H]1c2ccccc2CCN1C(=O)C1CCCCC1C(=O)O (stereo not given in full) | inconclusive: 57% |
| O=C(O)C1CCCCC1C(=O)N1CCCCC1CN1C(=O)c2ccccc2C1=O (stereo not given) | inactive: 16.6% |
| O=C(O)Cc1ccccc1C(=O)N1CCc2ccccc2[C@H]1CN1C(=O)c2ccccc2C1=O | inconclusive: 57% |
| CCOC(=O)C(C(=O)OCC)c1nc(NS(=O)(=O)c2c(C)cc(C)cc2C)c2ccccc2n1 | inconclusive: 45.5% |
| COC(=O)[C@H]1CCCC[C@H]1C(=O)N1CCc2ccccc2[C@H]1CN1C(=O)c2ccccc2C1=O | inconclusive: 63.6% |
| CC(C)CNc1nc(NS(=O)(=O)c2ccccc2)c2ccccc2n1 | inconclusive: 78.9% |
| C=CC(=O)NC[C@@H]1c2ccccc2CCN1C(=O)[C@@H]1CCCC[C@@H]1C(=O)O | inconclusive: 16.1% |

2 records drawn at random from those above:

| Compound | activation |
| --- | --- |
| COC(=O)[C@H]1CCCC[C@H]1C(=O)N1CCc2ccccc2[C@H]1CN1C(=O)c2ccccc2C1=O | inconclusive: 63.6% |
| O=C(NCCO)c1ccccc1C(=O)NC[C@@H]1c2ccccc2CCN1C(=O)C1CCCCC1C(=O)O (stereo not given in full) | inconclusive: 57% |

Reference: PubChem BioAssay AID651807 (Broad Institute, 2012)
